Structures are written as SMILES. The list shows only some results of the screen, not a fair sample: it gathers tests that were run many times, whatever their T/C, doses with no T/C, and many T/C values between a quarter and a half above the control. Other doses and runs of a compound stand elsewhere. T/C: endpoint of the treated group in % of that of the vehicle group. Some doses have a count of surviving animals in place of a T/C: the source files T/C as zero there, which appears to mark a toxic dose or a test without result, not a measured value. Some doses without a T/C left all or most animals alive at the check, yet need not have been tolerated: the source hardly ever lists a survival T/C far under the control, and the zero likely stands for such cases as well. Survivors were counted at the toxicity check, usually on the fifth day, unless a day is given; later deaths do not show. Schedule codes are those of the source, taken here to give the interval after Q, in days (D) or hours (H), and the number of doses after X. Some structures stand for samples that the source files as different forms (salt, stereo form or complex); doses refer to the form tested. Some entries hold several experiments; the values are given in rising order. For survival time, this PubChem deposit counts one and a half times the control or more as active, and values a quarter to a half above the control carry no call in these data; other NCI protocols may use other cut-offs.

The test deals with L1210 leukemia ip in BDF1 mice, survival T/C. Kind of test: NCI In Vivo Anticancer Drug Screen. Data for tumor model L1210 Leukemia (intraperitoneal) in B6D2F1 (BDF1) mice. The note with it: T/C endpoint: mean survival time, higher T/C = longer survival.
[1] abbreviates: dose: 200.0 mg/kg/injection, schedule: Q01DX009 (ip), vehicle: saline.
[2] abbreviates: dose: 400.0 mg/kg/injection, schedule: Q01DX001 (ip), vehicle: saline with Tween-80.
The mark [3] stands for this setting: dose: 400.0 mg/kg/injection, schedule: Q04DX003 (ip), vehicle: saline.
The mark [4] stands for this setting: dose: 100.0 mg/kg/injection, schedule: Q01DX009 (ip), vehicle: saline.
[5] abbreviates: dose: 200.0 mg/kg/injection, schedule: Q04DX003 (ip), vehicle: saline.
Setting [6] is: dose: 200.0 mg/kg/injection, schedule: Q01DX001 (ip), vehicle: saline.
[7] abbreviates: dose: 400.0 mg/kg/injection, schedule: Q01DX001 (ip), vehicle: saline.
The mark [8] stands for this setting: dose: 400.0 mg/kg/injection, schedule: Q01DX009 (ip), vehicle: Klucel (hydroxypropylcellulose) (HPC).
The mark [9] stands for this setting: dose: 400.0 mg/kg/injection, schedule: Q04DX003 (ip), vehicle: saline with Tween-80.
[10] abbreviates: dose: 100.0 mg/kg/injection, schedule: Q04DX003 (ip), vehicle: Klucel (hydroxypropylcellulose) (HPC).
Where [11] appears, read: dose: 200.0 mg/kg/injection, schedule: Q04DX003 (ip), vehicle: Klucel (hydroxypropylcellulose) (HPC).
Setting [12] is: dose: 400.0 mg/kg/injection, schedule: Q04DX003 (ip), vehicle: Klucel (hydroxypropylcellulose) (HPC).
The mark [13] stands for this setting: dose: 200.0 mg/kg/injection, schedule: Q01DX001 (ip), vehicle: carboxymethylcellulose (CMC).
Setting [14] is: dose: 50.0 mg/kg/injection, schedule: Q01DX001 (ip), vehicle: carboxymethylcellulose (CMC).
Where [15] appears, read: dose: 400.0 mg/kg/injection, schedule: Q01DX001 (ip), vehicle: carboxymethylcellulose (CMC).
Setting [16] is: dose: 300.0 mg/kg/injection, schedule: Q01DX001 (ip), vehicle: saline.

For `Nc1ncnc2c1cnn2Cc1ccc(Cl)cc1`, the survivor count runs as follows: under setting [1], 5 of 6; (dose: 400.0 mg/kg/injection, schedule: Q04DX003 (ip), vehicle: carboxymethylcellulose (CMC)) 3 of 6.

For the compound `CN1CCOC1=Nc1cccc2c1CCCC2`, where the note is “dose: 200.0 mg/kg/injection, schedule: Q01DX009 (ip), vehicle: other”, the survivor count is listed as 6 of 6.

For `CCSc1ncnc2c1nnn2C1OC(CO)C(O)C1O` (stereo not drawn), the survivor count under setting [2] is on record as 0 of 6.

As for `O=C(O)CC(Br)C(=O)O` (stereo not drawn), under setting [3], the survivor count is recorded as 2 of 6.

On to `CC1=NCCN1CCN=C(N)CCl`, for which the survivor count under setting [4] was 1 of 3; the survivor count (dose: 100.0 mg/kg/injection, schedule: Q04DX002 (ip), vehicle: saline) was 3 of 3; the survivor count (dose: 200.0 mg/kg/injection, schedule: Q04DX002 (ip), vehicle: saline) is given as 0 of 3; the survivor count (dose: 400.0 mg/kg/injection, schedule: Q04DX002 (ip), vehicle: saline) is given as 1 of 3.

For the compound `COC(=O)C(CSCSC)NC(=O)/C=C/c1ccco1` (stereo not drawn), the survivor count is on record as 4 of 6 (dose: 200.0 mg/kg/injection, schedule: Q01DX009 (ip), vehicle: saline with Tween-80) and 1 of 6 (dose: 400.0 mg/kg/injection, schedule: Q01DX009 (ip), vehicle: saline with Tween-80).

For `Oc1ccc(Nc2ccnc3cc(Cl)ccc23)cc1CN1CCCC1`, the survivor count was 5 of 6 (dose: 100.0 mg/kg/injection, schedule: Q04DX003 (ip), vehicle: saline); 0 of 6 (dose: 170.0 mg/kg/injection, schedule: Q01DX009 (ip), vehicle: saline); 2 of 6 under setting [5]; 3 of 6 under setting [3].

With `CCCCCCCCCCCCCCCCCCNc1nc(SC)ncc1C(=O)OCC`, the survivor count is 0 of 6 under setting [6] and 0 of 6 under setting [7].

Turning to `Cc1cc(NCC2CCNCC2)nc(/N=C(\N)Nc2ccc(Cl)c(Cl)c2)n1`, the survivor count is 1 of 6 under setting [5] and 2 of 6 under setting [3].

On to `c1ccc(N2N=NC3C4CC(C5COCC54)C32)cc1` (stereo not drawn), for which, under “dose: 100.0 mg/kg/injection, schedule: Q01DX009 (ip), vehicle: Klucel (hydroxypropylcellulose) (HPC)”, the T/C was 128 % of control. The survivor count under setting [8] is on record as 6 of 6.

Regarding `Cc1c(C(N)=O)no[n+]1[O-]`, the survivor count (dose: 400.0 mg/kg/injection, schedule: Q04DX002 (ip), vehicle: Klucel (hydroxypropylcellulose) (HPC)) is listed as 2 of 3.

Regarding `S=C=NCc1ccccc1Cl`, the survivor count is on record as 6 of 6 under setting [4]; 5 of 6 under setting [1]; 5 of 6 (dose: 400.0 mg/kg/injection, schedule: Q01DX009 (ip), vehicle: saline).

As for `CC(=O)N(C)c1cc(N)ccc1OCc1ccccc1`, under setting [9], the survivor count is recorded as 3 of 6.

Take `O=C(O)CCN(CCC(=O)O)CCC(=O)O`: the T/C (dose: 100.0 mg/kg/injection, schedule: Q01DX009 (ip), vehicle: saline with Tween-80) is 139 % of control.

In the case of `c1ccc2c(c1)ccc1nc3ccc4ccccc4c3cc12`, the survivor count is given as 3 of 4 (dose: 10.0 mg/kg/injection, schedule: Q01DX001 (ip), vehicle: saline); 4 of 4 (dose: 100.0 mg/kg/injection, schedule: Q01DX001 (ip), vehicle: saline); 4 of 4 under setting [6]; 4 of 4 under setting [7].

For the compound `CSCCOC(=O)C1C2CCC(O2)C1C(=O)O` (stereo not drawn), the survivor count (dose: 25.0 mg/kg/injection, schedule: Q04DX003 (ip), vehicle: Klucel (hydroxypropylcellulose) (HPC)) is on record as 3 of 6; the survivor count (dose: 50.0 mg/kg/injection, schedule: Q04DX003 (ip), vehicle: Klucel (hydroxypropylcellulose) (HPC)) is recorded as 0 of 6; the survivor count under setting [10] is given as 0 of 6; the survivor count under setting [11] is 0 of 6; the survivor count under setting [12] is given as 0 of 6.

Take `CCCCCCCN(CCCCCCC)CC(O)c1c2ccccc2cc2c1ccc1ccccc12` (stereo not drawn): the survivor count under setting [8] is 6 of 6.

For `CC(C)=CN1CCOCC1`, the survivor count is 3 of 6 (dose: 200.0 mg/kg/injection, schedule: Q01DX009 (ip), vehicle: Klucel (hydroxypropylcellulose) (HPC)) and 0 of 6 under setting [8].

Turning to `N=C(N)SCc1ccc(C(=O)Oc2ccc([N+](=O)[O-])cc2)cc1`, the survivor count is given as 3 of 6 under setting [4], 1 of 6 under setting [1] and 1 of 6 under setting [3].

`Nc1nc(=S)[nH][nH]1`: the survivor count by setting is: under setting [2], 2 of 6; under setting [9], 1 of 6.

As to `CCSC(C(OC(C)=O)C(OC(C)=O)C(OC(C)=O)C(COC(C)=O)OC(C)=O)n1cc(C)c(=O)[nH]c1=O` (stereo not drawn), the survivor count under setting [13] is reported as 4 of 4.

For the compound `CCOC(=O)C1(C(=O)OCC)C2CC(C)=C(C)CC21` (stereo not drawn), the survivor count (dose: 25.0 mg/kg/injection, schedule: Q01DX009 (ip), vehicle: acetone) was 6 of 6.

Turning to `CC(=O)OC1=CC(=O)c2ccccc2C1=O`, the survivor count runs as follows: under setting [14], 2 of 4; under setting [13], 0 of 4; under setting [15], 0 of 4.

On to `CN(N=Nc1ccc(C(=N)N)cc1)C1CCCCC1`, for which the survivor count (dose: 75.0 mg/kg/injection, schedule: Q01DX001 (ip), vehicle: saline) is 0 of 6; the survivor count (dose: 150.0 mg/kg/injection, schedule: Q01DX001 (ip), vehicle: saline) is listed as 0 of 6; the survivor count under setting [16] is reported as 0 of 6.

Take `NCCSC(O)(C(F)(F)F)C(F)(F)F`: the survivor count under setting [16] was 1 of 6 and 3 of 6.

Consider `O=C(Nc1ccc(O)cc1)OCc1ccccc1`, for which the T/C under setting [10] was 135 % of control. Also, the survivor count (dose: 150.0 mg/kg/injection, schedule: Q04DX003 (ip), vehicle: Klucel (hydroxypropylcellulose) (HPC)) was 5 of 6.

Take `O=C(NCCCNC(=O)Nc1ccc(C2=NCC(O)CN2)cc1)Nc1ccc(C2=NCC(O)CN2)cc1` (stereo not drawn): the survivor count is, setting by setting: (dose: 123.0 mg/kg/injection, schedule: Q01DX015 (ip), vehicle: methylcellulose (MC)) 0 of 6; (dose: 246.0 mg/kg/injection, schedule: Q01DX015 (ip), vehicle: methylcellulose (MC)) 0 of 6.

In the case of `O=N[O-].O=N[O-].O=N[O-].O=N[O-].[Co+2].[NH2-].[NH2-]`, under setting [9], the survivor count is reported as 0 of 3.

Consider `C=CCNC(=S)NNC(=O)CCCC(=O)NNC(=S)NCC=C`, for which the survivor count under setting [6] is recorded as 4 of 4.

`N#C/C(=C\c1ccc(-c2ccccc2)cc1)c1ccc(Cl)cc1`: the survivor count is recorded as 6 of 6 (dose: 25.0 mg/kg/injection, schedule: Q01DX009 (ip), vehicle: saline with Tween-80) and 6 of 6 (dose: 50.0 mg/kg/injection, schedule: Q01DX009 (ip), vehicle: saline with Tween-80).

In the case of `CSc1ncc(Br)c(Cl)n1`, the survivor count is 2 of 4 under setting [14]; 1 of 4 (dose: 100.0 mg/kg/injection, schedule: Q01DX001 (ip), vehicle: carboxymethylcellulose (CMC)); 0 of 4 under setting [13]; 0 of 4 under setting [15].

Turning to `Nc1ccc(-c2ccc(NC(=O)C(=O)O)cc2)cc1`, the survivor count is on record as 0 of 6 under setting [11] and 0 of 6 under setting [12].

As to `COc1cc(C(=O)CC(O)(C(F)(F)F)C(F)(F)F)cc(OC)c1OC`, the survivor count (dose: 400.0 mg/kg/injection, schedule: Q01DX001 (ip), vehicle: Klucel (hydroxypropylcellulose) (HPC)) is on record as 6 of 6.

(Values after PubChem BioAssay AID248 (DTP/NCI, 2004).)
